US10752584B2 (EMORY UNIVERSITY, priority 2016, dated 2020)
Entries after “also recorded” stand apart in the source; their conditions may differ. At least one structure is not confirmed: it was looked up by name or label, or the drawing left a doubt.

The chains behind the UniProt entries cited, without tags or fusion partners. Residues count along the entry.
UniProt P03147, 1-149: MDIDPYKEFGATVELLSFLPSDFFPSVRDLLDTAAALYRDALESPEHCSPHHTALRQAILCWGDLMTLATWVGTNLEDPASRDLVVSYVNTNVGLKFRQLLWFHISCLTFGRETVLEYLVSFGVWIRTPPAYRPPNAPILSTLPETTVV

Key:
HBV Cp149 capsids = biological target: T1, HBV Cp149 capsids (Hepatitis B virus genotype D subtype adw, UniProt P03147); test: Disruption of already-formed capsids, electron micrographs; type: biochemical; details: 25 μM compound, overnight at 4°, FIG. 2-4
T1 construct: hepatitis B virus core C-terminally truncated protein (HBV Cp149); made in house
Experimental: The next question was whether these compounds could disrupt already-formed capsids. Accordingly, the capsids were formed as discussed above (incubation of isolated HBV Cp149 with 300 mM NaCl, stored overnight at 4°). Then, the capsids were incubated with the putative compound (overnight at 4°), and electron micrographs were then taken.

HBV Cp149 = biological target: T2, HBV Cp149 (Hepatitis B virus genotype D subtype adw, UniProt P03147); test: Capsid formation assay, electron micrographs; type: biochemical; details: 25 μM compound
T2 construct: hepatitis B virus core C-terminally truncated protein (HBV Cp149); made in house
Experimental: In the absence of compounds which disrupt capsid formation, hepatitis B virus core C-terminally truncated protein (HBV Cp149, protein isolated by reported methods [Zlotnick, A et al; Biochem 1996, 35, 7412-7421] normally assembles into an HBV Cp149 capsid. The purpose of this example was to determine whether putative active agents would disrupt capsid formation, and thus be active as anti-HBV agents. Putative active agents were incubated at a concentration of 25 μM for 1 h at 4° C. with HBV Cp149 at a concentration of 10 μM. Capsid assembly was then promoted by adding 300 mM NaCl, and storing the mixture overnight at 4°. Negative-stain electron micrographs were collected using a JEOL JEM-1400 120 kV electron microscope using uranyl acetate as a contrast agent.

SMILES: C#CCNC(=O)C(=O)c1c(C)c(C(=O)Nc2ccc(F)c(F)c2)n(C)c1C [Compound 7a, 4-[(Propargylamino)(oxo)acetyl]-N-(3,4-difluorophenyl)-1,3,5-trimethyl-1H-pyrrole-2-carboxamide]
- Effect on already-formed capsids (HBV Cp149 capsids): incomplete hollow spheres, in a relatively low abundance; also recorded: the concentration of capsids was clearly, and significantly reduced
- Effect on capsid formation (HBV Cp149; 10 μM HBV Cp149, 300 mM NaCl, FIG. 1): incomplete hollow spheres, in a relatively low abundance; also recorded: capsid formation was disrupted
- Size of the hollow spheres formed (HBV Cp149; 10 μM HBV Cp149, vehicle approximately 40 nm): < 40 nm
